No constants are given. Whether binding was seen depends on the method and setting. Some results given as binding are weak or reduced against the parent protein; the word gives no strength.
B1: Clone 6 (anti-TRP2 monoclonal antibody) (antibody, V domains shown)
VH: QVQLQQSGAELMKPGASVKLSCKATGYTFTGYWIEWVKQRPGHGLEWIGEILPGSGSTNYNEKFKGKATFTADTSSNTAYMQLSSLTTEDSAIYYCASGAYWGQGTLVTVSA
VL: DIQMTQSPASLSVSVGETVTITCRASENIYSNLAWYQQKQGKSPQLLVYAATNLADGVPSRFSGSGSGTQYSLKINSLQSEDFGSYYCQHFWGTPYTFGGGTKLEIK
B2: Clone 7 (monoclonal antibody) (antibody, V domains shown)
VH: QVQLQQSGAELVRPGASVTLSCKAPGYIFIDYEIHWVKQTPVHGLEWIGAIDPETGGTAYNQKFKGKARLTADISSSTAYMDLRSLTSEDSAVYYCTRDYGYDDFGVWGTGTTVTVSS
VL: DIVMTQSHKFMSTSVGDRVNITCKASQDVNTAVAWYQQAPGQSPKLLIYSASYRYTGVPDRFTGSGSGTDFTFTISSVKAEDLAVYYCQQHYSTPYTFGGGTKLEIK
B3: Clone 8 (monoclonal antibody) (antibody, V domains shown)
VH: QVQLQQSGAELVKPGASVKISCKASGYTFSNYWMNWVKQRPGKGLQWIGQIYPGDGDTNYNGKFEGTATLTADKSSSTAYMQLSSLTSEDSAVYFCARAYYDYAYYFDYWGQGTTLTVSS
VL: ETTVTQSPASLSVATGEKVTIRCIISTDIDDDMNWYQQKPGEPPKLLISEGNTLRPGVPSRFSSSGYGTDFVFTIENTLSEDVADYYCLQSDNMPLTFGGGTKLEIK
B4: Clone 2 (anti-TRP2 monoclonal antibody) (antibody, V domains shown)
VH: EVQLVESGGDLVKPGGSLKLSCAASGFTFSSYGMSWVRQTPDKRLEWVATISSGGSYTYYPDSVKGRFTISRDNAKNTLYLQMSSLKSEDTAMYYCARLGVTTVVHGAMDYWGQGTSVTVSS
VL: DIQMTQSPASLSASVGETVTITCRASENIYSYLAWYQQKQGKSPQLLVYNAKTLAEGVPSRFSGSGSGTQFSLKINSLQPEDFGSYYCQHHYGTPWTFGGGTKLEIK
B5: Clone 5 (monoclonal antibody) (antibody, V domains shown)
VH: DVQLQESGPGLVKPSQSLSLTCSVTGYSITSGYYWNWIRQFPGNKLEWMGYISYDGSNNYNPSLKNRISITRDTSKNQFFLKLNSVTTEDTATYYCAREGYYGNEGYWGQGTTLTVSS
VL: DIQMTQTTSSLSASLGDRVTISCRASQDISNYLNWYQQKPDGTVKLLIYYTSRLHSGVPSRFSGSGSGTDYSLTISNLEQEDIATYFCQQGNTLPYTFGGGTKLEIK

Protein sequences, listed by entry. Tags and fused reporters are not part of them. Residues count along the entry.
UniProt P40126, residues 24-472: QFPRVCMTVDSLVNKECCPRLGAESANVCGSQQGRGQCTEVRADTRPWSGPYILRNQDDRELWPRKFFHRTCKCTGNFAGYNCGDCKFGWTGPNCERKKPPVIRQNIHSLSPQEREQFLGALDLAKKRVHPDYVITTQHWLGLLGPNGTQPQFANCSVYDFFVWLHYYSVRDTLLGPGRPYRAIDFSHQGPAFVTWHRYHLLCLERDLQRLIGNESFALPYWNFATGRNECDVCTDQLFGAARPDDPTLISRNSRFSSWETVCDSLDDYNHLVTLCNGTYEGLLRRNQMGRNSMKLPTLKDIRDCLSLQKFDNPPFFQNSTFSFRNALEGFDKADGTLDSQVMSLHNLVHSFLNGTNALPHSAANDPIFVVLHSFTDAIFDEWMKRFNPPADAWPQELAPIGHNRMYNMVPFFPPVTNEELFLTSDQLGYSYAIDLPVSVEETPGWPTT

Molecular target: recombinant human TRP2 (human) (UniProt P40126)
Experiment: ELISA on recombinant human TRP2 (Fig. 7B)

binding, binds:
B1, B2, B3, B4, B5
